We go through three molecules from article PMC12192654.

Sequences of proteins named here, by UniProt entry; tags and fusion partners are left off.
UniProt Q00539: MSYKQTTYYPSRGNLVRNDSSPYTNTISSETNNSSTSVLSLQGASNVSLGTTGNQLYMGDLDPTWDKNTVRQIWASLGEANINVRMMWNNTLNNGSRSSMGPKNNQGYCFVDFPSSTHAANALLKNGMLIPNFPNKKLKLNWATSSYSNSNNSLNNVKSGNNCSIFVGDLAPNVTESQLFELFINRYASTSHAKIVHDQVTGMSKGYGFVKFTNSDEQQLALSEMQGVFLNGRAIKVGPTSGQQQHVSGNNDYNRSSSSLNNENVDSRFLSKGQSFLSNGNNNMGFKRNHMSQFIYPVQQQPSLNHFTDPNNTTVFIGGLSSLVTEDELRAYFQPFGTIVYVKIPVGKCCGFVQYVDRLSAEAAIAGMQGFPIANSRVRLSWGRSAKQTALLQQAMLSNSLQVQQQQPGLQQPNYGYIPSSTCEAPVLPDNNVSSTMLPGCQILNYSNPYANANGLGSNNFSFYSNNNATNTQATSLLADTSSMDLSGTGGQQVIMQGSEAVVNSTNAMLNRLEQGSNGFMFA
UniProt Q07508: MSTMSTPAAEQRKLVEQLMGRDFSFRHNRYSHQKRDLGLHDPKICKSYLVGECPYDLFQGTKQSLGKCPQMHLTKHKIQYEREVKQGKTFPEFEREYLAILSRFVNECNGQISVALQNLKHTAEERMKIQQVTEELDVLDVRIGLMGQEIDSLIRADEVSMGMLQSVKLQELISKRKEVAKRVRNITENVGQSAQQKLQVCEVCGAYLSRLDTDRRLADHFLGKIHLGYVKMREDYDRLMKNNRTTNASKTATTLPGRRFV
UniProt P53207: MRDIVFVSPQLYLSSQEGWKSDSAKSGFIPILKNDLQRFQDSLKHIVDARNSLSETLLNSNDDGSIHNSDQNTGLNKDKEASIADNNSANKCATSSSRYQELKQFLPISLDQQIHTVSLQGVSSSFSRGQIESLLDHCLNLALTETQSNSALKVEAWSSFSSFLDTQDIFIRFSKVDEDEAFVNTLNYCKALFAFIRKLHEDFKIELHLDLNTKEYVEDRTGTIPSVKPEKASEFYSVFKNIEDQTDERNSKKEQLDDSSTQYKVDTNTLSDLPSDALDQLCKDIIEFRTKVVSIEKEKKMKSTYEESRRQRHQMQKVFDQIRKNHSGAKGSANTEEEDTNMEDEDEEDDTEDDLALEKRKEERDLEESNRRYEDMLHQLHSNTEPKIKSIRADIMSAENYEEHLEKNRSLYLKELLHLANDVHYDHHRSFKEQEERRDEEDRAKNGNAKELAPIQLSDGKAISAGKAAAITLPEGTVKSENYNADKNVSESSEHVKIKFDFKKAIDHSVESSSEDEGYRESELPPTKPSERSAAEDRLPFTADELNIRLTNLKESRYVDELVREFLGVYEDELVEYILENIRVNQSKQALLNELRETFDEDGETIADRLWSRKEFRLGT

Results are given in words; binding and its absence hold for the method and conditions named. Binding seen in cells or lysates may run through a third protein. A yes stands for co-enrichment or nearness to the bait. Other partners may have been found. Tags and fused reporters may be left off the sequences shown.

In the assay the target is Nam8-TAP (TAP-tagged Nam8p) (S. cerevisiae) (UniProt Q00539). The experiment in a line: affinity purification with mass spectrometry; tandem affinity purification of TAP-tagged Swt21p or Nam8p from whole-cell yeast extracts: IgG Sepharose, PreScission elution, calmodulin resin, 300 mM NaCl buffers; eluates identified by mass spectrometry; Nam8-TAP also in the absence of Swt21p.

Take Luc7p (from UniProt Q07508 1-261): the binding result is listed as “binds”.

Take Snu71p (from UniProt P53207 1-620): the binding entry is “binds”.

B1: SmBp (protein, UniProt P40018 1-196)
chain: MSKIQVAHSSRLANLIDYKLRVLTQDGRVYIGQLMAFDKHMNLVLNECIEERVPKTQLDKLRPRKDSKDGTTLNIKVEKRVLGLTILRGEQILSTVVEDKPLLSKKERLVRDKKEKKQAQKQTKLRKEKEKKPGKIAKPNTANAKHTSSNSREIAQPSSSRYNGGNDNIGANRSRFNNEAPPQTRKFQPPPGFKRK
For the molecule B1, the binding result is “binds”.
